Results taken from doi:10.1101/2023.10.10.561251.
Results are given in words; binding and its absence hold for the method and conditions named. In cells and extracts the contact can be indirect. Tags and fused reporters may be left off the sequences shown.

Molecular target: cpFeS-YFP
Assay: co-IP

B1: VIPP1-FLAG (Arabidopsis VIPP1 with a FLAG tag) (protein, UniProt O80796 65-330)
chain: CNGHGATMNLFERFSRVVKSYANALISSFEDPEKILEQTVIEMNSDLTKMRQATAQVLASQKQLQNKYKAAQQSSDDWYKRAQLALAKGDEDLAREALKRRKSFADNATALKTQLDQQKGVVDNLVSNTRLLESKIQEAKAKKDTLLARARTAKTATKVQEMIGTVNTSGALSAFEKMEEKVMAMESEADALTQIGTDELEGKFQMLETSSVDDDLADLKKELSGSSKKGELPPGRSTVAASTRYPFKDSEIENELNELRRKANDF
- binding: no binding
